Source: paper PMC10511046
These are yes or no findings as the source states them, for the method shown. Binding seen in cells or lysates may run through a third protein. These calls come from enrichment with a bait or labelling near it, and not all partners need be listed.

Chains of the proteins cited; added tags and fusions are not shown.
UniProt P68373: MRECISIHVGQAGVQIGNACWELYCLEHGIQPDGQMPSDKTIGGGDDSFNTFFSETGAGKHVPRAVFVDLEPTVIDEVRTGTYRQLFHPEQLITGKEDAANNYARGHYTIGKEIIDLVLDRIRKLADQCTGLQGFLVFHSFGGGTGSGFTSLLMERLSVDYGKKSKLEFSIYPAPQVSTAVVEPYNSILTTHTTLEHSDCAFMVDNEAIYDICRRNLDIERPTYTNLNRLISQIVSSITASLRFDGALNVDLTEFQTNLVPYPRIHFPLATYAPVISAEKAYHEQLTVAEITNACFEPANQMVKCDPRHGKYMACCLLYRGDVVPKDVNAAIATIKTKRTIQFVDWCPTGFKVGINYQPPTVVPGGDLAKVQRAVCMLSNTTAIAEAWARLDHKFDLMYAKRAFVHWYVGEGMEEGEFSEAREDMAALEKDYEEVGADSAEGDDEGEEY
UniProt Q3UHU5: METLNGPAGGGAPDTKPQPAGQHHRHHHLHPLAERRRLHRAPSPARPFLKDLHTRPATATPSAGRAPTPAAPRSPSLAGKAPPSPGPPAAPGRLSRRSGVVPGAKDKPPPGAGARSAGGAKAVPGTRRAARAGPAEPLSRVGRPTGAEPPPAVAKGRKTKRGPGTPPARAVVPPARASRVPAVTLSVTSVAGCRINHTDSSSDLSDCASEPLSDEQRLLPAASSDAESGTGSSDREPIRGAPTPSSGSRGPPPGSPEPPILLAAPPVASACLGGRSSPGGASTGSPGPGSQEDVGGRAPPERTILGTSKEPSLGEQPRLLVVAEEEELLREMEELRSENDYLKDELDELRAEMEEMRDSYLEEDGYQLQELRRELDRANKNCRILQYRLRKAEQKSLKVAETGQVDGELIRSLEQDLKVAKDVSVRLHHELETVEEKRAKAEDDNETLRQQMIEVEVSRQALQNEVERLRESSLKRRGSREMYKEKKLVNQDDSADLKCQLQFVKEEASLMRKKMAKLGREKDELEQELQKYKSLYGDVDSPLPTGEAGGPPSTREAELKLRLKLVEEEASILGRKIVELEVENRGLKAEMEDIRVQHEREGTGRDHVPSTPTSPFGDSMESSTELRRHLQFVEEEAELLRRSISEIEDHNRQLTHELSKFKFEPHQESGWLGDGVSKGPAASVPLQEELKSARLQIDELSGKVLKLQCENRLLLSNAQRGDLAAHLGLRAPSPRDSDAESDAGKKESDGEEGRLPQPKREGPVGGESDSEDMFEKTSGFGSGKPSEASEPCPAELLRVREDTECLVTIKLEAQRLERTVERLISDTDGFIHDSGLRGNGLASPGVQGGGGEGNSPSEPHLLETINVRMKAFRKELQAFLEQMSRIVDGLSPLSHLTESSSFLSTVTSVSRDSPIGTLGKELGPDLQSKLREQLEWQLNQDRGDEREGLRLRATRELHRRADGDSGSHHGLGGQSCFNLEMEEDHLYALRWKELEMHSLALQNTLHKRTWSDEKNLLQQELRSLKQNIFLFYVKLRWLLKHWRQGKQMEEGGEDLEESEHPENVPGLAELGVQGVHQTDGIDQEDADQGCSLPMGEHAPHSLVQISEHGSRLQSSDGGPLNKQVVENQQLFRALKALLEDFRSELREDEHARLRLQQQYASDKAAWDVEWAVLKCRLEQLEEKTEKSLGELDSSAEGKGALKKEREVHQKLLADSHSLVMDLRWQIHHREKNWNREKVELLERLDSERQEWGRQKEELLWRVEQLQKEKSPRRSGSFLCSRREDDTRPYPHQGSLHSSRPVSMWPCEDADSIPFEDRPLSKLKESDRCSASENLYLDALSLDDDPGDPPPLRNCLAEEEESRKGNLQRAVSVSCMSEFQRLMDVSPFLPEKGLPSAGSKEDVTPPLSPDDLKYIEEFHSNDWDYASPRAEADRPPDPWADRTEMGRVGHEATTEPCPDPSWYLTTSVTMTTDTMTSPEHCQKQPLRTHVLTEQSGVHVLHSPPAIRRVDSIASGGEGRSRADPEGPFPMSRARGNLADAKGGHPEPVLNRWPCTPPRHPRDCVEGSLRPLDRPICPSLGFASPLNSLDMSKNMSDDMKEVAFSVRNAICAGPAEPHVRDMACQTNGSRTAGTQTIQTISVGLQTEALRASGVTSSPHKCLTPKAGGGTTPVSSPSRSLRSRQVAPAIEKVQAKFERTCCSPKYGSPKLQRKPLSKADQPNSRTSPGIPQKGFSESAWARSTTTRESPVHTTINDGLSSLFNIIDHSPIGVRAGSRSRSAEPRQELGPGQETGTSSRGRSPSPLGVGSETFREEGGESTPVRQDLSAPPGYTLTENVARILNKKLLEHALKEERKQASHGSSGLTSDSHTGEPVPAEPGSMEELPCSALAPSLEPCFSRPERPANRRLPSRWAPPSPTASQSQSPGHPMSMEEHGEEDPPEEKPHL
UniProt P11798: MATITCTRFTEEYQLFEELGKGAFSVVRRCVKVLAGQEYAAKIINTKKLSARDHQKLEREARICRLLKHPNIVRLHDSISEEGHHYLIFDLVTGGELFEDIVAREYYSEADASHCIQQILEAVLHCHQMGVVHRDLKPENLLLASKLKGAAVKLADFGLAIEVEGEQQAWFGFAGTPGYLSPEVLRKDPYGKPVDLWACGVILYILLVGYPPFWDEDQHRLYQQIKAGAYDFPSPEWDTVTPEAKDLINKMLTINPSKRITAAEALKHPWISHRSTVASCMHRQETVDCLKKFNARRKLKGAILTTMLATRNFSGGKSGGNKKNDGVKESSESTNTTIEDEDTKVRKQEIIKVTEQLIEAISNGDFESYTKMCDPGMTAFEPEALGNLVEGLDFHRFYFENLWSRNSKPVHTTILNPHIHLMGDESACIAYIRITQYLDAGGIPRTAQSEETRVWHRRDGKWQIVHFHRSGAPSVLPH
UniProt Q6PHZ2: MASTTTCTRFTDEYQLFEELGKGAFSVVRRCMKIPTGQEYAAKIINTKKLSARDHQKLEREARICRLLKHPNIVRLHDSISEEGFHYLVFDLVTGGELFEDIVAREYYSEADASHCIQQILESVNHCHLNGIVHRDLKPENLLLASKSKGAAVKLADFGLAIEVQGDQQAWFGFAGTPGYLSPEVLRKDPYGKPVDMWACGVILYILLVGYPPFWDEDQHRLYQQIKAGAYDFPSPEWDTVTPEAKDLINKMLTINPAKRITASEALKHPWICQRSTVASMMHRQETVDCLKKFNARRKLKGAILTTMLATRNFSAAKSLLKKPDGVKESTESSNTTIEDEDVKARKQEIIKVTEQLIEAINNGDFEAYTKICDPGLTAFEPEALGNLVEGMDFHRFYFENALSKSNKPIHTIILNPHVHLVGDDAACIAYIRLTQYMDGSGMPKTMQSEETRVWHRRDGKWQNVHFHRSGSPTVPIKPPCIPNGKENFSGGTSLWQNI
UniProt P68368: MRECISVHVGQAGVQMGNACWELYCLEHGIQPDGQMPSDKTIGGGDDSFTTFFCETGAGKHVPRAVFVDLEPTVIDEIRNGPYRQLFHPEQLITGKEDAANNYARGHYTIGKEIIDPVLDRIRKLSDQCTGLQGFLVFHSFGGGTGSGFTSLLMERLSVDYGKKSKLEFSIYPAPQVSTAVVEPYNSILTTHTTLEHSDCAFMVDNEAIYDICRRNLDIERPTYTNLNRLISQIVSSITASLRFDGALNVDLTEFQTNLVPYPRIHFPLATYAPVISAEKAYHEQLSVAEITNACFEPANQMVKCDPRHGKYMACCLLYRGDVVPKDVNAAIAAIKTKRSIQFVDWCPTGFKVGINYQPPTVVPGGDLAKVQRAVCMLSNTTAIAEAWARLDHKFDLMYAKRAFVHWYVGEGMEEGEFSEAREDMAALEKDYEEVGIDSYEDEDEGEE
UniProt P28652: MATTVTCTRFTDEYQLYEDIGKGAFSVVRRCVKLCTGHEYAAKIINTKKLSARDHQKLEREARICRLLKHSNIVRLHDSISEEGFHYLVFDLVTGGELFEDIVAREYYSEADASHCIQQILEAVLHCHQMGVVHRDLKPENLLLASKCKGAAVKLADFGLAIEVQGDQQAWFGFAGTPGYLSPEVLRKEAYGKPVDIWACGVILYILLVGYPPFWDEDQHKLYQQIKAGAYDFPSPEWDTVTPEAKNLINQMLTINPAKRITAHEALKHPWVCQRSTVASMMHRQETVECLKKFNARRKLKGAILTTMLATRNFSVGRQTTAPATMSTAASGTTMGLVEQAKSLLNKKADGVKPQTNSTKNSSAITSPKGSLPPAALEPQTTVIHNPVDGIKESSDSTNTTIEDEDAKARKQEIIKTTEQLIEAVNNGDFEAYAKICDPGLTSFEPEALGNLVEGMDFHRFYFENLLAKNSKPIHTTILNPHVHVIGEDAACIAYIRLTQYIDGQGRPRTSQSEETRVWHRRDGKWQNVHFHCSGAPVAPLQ

T1: Prickle2 (mouse (endogenous in mouse brain)) (UniProt Q80Y24)
T1 sequence: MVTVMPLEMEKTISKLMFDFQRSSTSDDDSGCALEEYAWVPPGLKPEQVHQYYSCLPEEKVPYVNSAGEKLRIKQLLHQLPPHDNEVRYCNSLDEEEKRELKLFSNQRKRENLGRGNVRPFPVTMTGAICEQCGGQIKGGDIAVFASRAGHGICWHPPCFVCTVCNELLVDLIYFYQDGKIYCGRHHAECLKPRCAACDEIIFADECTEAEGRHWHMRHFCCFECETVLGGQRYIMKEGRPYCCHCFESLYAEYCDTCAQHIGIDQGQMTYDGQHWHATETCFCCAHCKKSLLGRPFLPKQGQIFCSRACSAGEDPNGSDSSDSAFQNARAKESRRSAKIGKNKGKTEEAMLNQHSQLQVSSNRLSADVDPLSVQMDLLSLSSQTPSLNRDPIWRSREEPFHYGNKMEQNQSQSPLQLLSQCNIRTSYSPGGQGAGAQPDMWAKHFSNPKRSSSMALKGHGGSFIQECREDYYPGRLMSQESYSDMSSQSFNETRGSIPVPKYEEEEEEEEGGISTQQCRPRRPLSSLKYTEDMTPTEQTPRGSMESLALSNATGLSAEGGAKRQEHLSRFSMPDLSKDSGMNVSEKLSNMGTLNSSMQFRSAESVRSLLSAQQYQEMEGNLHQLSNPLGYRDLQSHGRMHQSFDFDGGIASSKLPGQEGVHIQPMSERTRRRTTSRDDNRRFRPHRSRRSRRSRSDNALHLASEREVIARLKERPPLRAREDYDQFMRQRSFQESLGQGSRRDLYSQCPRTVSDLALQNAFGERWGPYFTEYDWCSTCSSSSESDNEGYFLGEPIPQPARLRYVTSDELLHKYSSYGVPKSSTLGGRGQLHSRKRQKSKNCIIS

B1: Immunoglobulin superfamily member 9b (protein, UniProt E9PZ19 18-1328)
chain: LVAQGAHGLREEPEFVTARAGEGVVLRCDVIHPVTGQPPPYVVEWFKFGVPIPIFIKFGYYPPHVDPEYAGRASLHDKASLRLEQVRSEDQGWYECKVLMLDQQYDTFHNGSWVHLTINAPPTFTETPPQYIEAKEGGSITMTCTAFGNPKPIVTWLKEGTLLGASAKYQVSDGSLTVTSVSREDRGAYTCRAYSIQGEAVHTTHLLVQGPPFIVSPPENITVNISQDALLTCRAEAYPGNLTYTWYWQDENVYFQNDLKLRVRILIDGTLIIFRVKPEDAGKYTCVPSNSLGRSPSASAYLTVQYPARVLNMPPVIYVPVGIHGYIRCPVDAEPPATVVKWNKDGRPLQVEKNLGWTLMEDGSIRIEEATEEALGTYTCVPYNTLGTMGQSAPARLVLKDPPYFTVLPGWEYRQEAGRELLIPCAAAGDPFPVITWRKVGKPSRSKHNALPSGSLQFRALSKEDHGEWECVATNVVTSITASTHLTVIGTSPHAPGSVRVHVSMTTANVSWEPGYDGGYEQTFSVWMKRAQFGPHDWLSLSVPPGPSWLLVDSLEPETAYQFSVLAQNRLGTSAFSEVVTVNTLAFPVTTPEPLVLVTPPRCLTANRTQQGVLLSWLPPANHSFPIDRYIMEFRVGERWEMLDDAIPGTDGDFFAKDLSQDTWYEFRVLAVMQDLISEPSNIAGVSSTDIFPQPDLTDDGLARPVLAGIVATICFLAAAILFSTLAACFVNKQRKRKLKRKKDPPLSITHCRKSLESPLSSGKVSPESIRTLRAPSESSDDQGQPAAKRMLSPTREKELSLYKKTKRAISSRKYSVAKAEAEAEATTPIELISRGPDGRFVMGPSEMEPSVKGRRIEGFPFAEETDMYPEFRQSDEENEDPLVPTSVAALKPQLTPMSSSQDSYLPPPAYSPRFQPRGLEGPSGLGGRLQATGQARPPAPRPFQHGQYYGYLSSSSPGEVEPPPFYMPEVGSPLSSVMSSPPLHTEGPFGHPTIPEENGENASNSTLPLTQTPTGGRSPEPWGRPEFPFGGLETPAMMFPHQLHPCDVAESLQPKACLPRGLPPAPLQVPAAYPGMLSLEAPKGWVGKSPGRGPIPAPPATKWQERPMQPLVSQGQLRHTSQGMGIPVLPYPEPAEPGGHGGPSTFGLDTRWYEPQPRPRPSPRQARRAEPSLHQVVLQPSRLSPLTQSPLSSRTGSPELAARARPRPGLLQQAEMSEITLQPPAAVSFSRKSTPSSTGSPSQSSRSGSPSYRPTMGFTTLATGYPSPPPGPAPPAPGDTLDVFGQTPSPRRMGEEPLRPEPPTTLPTSG

Molecular target: T1, Prickle2 (mouse (endogenous in mouse brain))
Assay: affinity purification with mass spectrometry; endogenous Prickle2 immunoprecipitated with anti-Prickle2 antibody from whole mouse brain lysate (PD9 and adult) in RIPA buffer; coprecipitated proteins identified by LC-MS/MS; hits had more than 3-fold more peptides than controls

binding | Molecule
binds | Tuba1c (from UniProt P68373 1-449)
binds | Tuba4b (mouse (endogenous in mouse brain))
binds | Microtubule crosslinking factor 1 (from UniProt Q3UHU5 1-1945)
binds | Calcium-calmodulin dependent kinase CamK2alpha (from UniProt P11798 1-478)
binds | Calcium-calmodulin dependent kinase CamK2delta (from UniProt Q6PHZ2 1-499)
binds | Microtubule associated protein 1a (from UniProt Q9QYR6 1-2776)
binds | Tuba4a (from UniProt P68368 1-448)
binds | Calcium-calmodulin dependent kinase CamK2beta (from UniProt P28652 1-542)
binds | B1
